In PubChem BioAssay AID504467 (National Center for Advancing Translational Sciences (NCATS), 2011):
In all, about 330,000 compounds went through this assay and about 7,700 (2.3%) were called active. Inconclusive results, whose numbers are uncertain, are shown with a selection of clear calls. Calls come from the whole dose curve; as a rule, active = well fitted inhibition curve with a large enough effect; inconclusive = small, poorly fitted or top-dose-only effect, or effect the other way; inactive = flat fitted curve, though single readings scatter. A potency beside an inconclusive call is a rough fit, not a confirmed value.

Experiment: qHTS screen for small molecules that inhibit ELG1-dependent DNA repair in human embryonic kidney (HEK293T) cells expressing luciferase-tagged ELG1; note: nearly all actives have a fitted effect of over 55% in size
Conditions: HEK293T ELG1-luciferase reporter, luminescence, 16 h, DNA damage induced by 5-fluorouridine; activity change, negative = inhibition: at 46.1 µM (top of the series)
In short: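 HEK293T cells expressing luciferase-tagged ELG1 (2,000/well) received 5-Fluorouridine plus compound or DMSO for 16 hr at 37 °C. Luciferase was read by ONE-Glo luminescence after 30 min at room temperature.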
% is set by controls: 0 for no effect and ±100 for the full control effect; potency is the fitted concentration of half-maximal effect.

| SMILES | Potency | activity change, negative = inhibition |
| --- | --- | --- |
| COc1ccc(NC(=O)C2CC(=O)N/C(=N/N=C/c3ccccc3)S2)cc1 (centres undefined) | inconclusive: 11.6 µM [activator, partial curve] |  |
| c1ccc2sc(NN=C3CCCCCC3)nc2c1 | inconclusive: 0.58 µM [activator, full curve] |  |
| C=CCn1c(/N=C/c2ccc(N(C)C)cc2)nc2ccccc21 |  | inactive: 10.4% |
| Cc1ncc(CO)c(/C=N/NC(=S)Nc2cccc(Cl)c2)c1O | inconclusive: 3.66 µM [inhibitor, single point] |  |
| COC(=O)CN1C(=S)N(c2ccc(OC)cc2)C(=O)/C1=C/c1ccc(N2CCOCC2)cc1 | inconclusive: 23.1 µM [inhibitor, partial curve] |  |
| Cc1ccc(CN2C3CCCC2CC(NC(=O)c2ccc(F)cc2)C3)cc1 (centres undefined) |  | inactive: -11.9% |
| N#Cc1cccc(NC(=O)C2SC(=Nc3ccccc3)C(C(=O)N3CCOCC3)=C2N)c1 (centres undefined) | inconclusive: 13 µM [inhibitor, partial curve] |  |
| Cc1ccn2c(c1)nc(=S)n2C(=O)c1ccccc1 | inconclusive: 0.326 µM [activator, full curve] |  |
| COc1ccccc1OCc1nnc(SCC(=O)c2cc(Cl)ccc2OC)o1 |  | inactive: -27% |
| C=CCN1C(c2ccc(OCC)cc2)=CS/C1=C(\C#N)c1nnc2n1CCCCC2 | inconclusive: 11.6 µM [inhibitor, partial curve] |  |
| N#C/C(=C\c1cccs1)C(=O)NCc1cccnc1 |  | inactive: 3.26% |
| CC(=O)c1cccc(NC(=O)c2ccc(C)o2)c1 | inconclusive: 16.4 µM [activator, partial curve] |  |
| Cc1ccc(-n2nnc3c(=O)n(CC(=O)N4CCC(C)CC4)cnc32)cc1 | inconclusive: 10.3 µM [activator, partial curve, poor fit] |  |
| Cc1ccc(Nc2nc(N)nc(CN3CCN(C)CC3)n2)cc1 | inconclusive: 23.1 µM [activator, partial curve] |  |
| CCN1CCN(c2cc(C)c3cc(NC(=O)c4cncc(Br)c4)ccc3n2)CC1 | inconclusive: 23.1 µM [inhibitor, single point] |  |
| CCOc1ccc(Nc2nc(N)nc(CN3CCN(c4ccccc4F)CC3)n2)cc1 | active: 16.4 µM |  |
| CC(CN1CCOCC1)OC(=O)c1ccc2c(c1)OCCO2 (centres undefined) | inconclusive: 29.1 µM [activator, single point] |  |
| Cc1ccc(NC(=O)CN2CCCC2c2cccs2)cc1S(=O)(=O)N1CCCCC1 (centres undefined) | inconclusive: 10.3 µM [inhibitor, partial curve] |  |
| COc1ccc2oc(C(=O)OCC(=O)NC3CC3)c(C)c2c1 | inconclusive: 25.9 µM [activator, single point] |  |
| COC(=O)c1ccc2c(c1)N(Cc1cc(C)ccc1C)C(=O)c1ccccc1S2=O (centres undefined) |  | inactive: 3.26% |
| COc1ccc2c(CC(=O)N3CCc4cc(OC)c(OC)cc4C3)coc2c1 | inconclusive: 32.6 µM [inhibitor, partial curve, poor fit] |  |
| Cc1ccc(OCCn2nnc3ccccc32)cc1C | inconclusive: 20.6 µM [activator, partial curve] |  |
| CCN(CC(=O)Nc1ccc(N2CCOCC2)cc1)C(=O)Cc1ccccc1 | inconclusive: 14.6 µM [activator, partial curve, poor fit] |  |

| SMILES | Potency | activity change, negative = inhibition |
| --- | --- | --- |
| CCOc1ccc(-c2cc(N3C(=O)Nc4ccccc4N3O)on2)cc1 | inconclusive: 16.4 µM [activator, partial curve, poor fit] |  |
| O=C(NN=C1C2CC3CC(C2)CC1C3)c1cc(Cl)ccc1O |  | inactive: 14.5% |
| COc1ccccc1N1CCN(C(=S)Nc2ccc(S(=O)(=O)N3CCOCC3)cc2)CC1 | inconclusive: 14.6 µM [inhibitor, partial curve] |  |
| c1ccc2oc(NC3=NCN(C4CCCCC4)CN3)nc2c1 | inconclusive: 2.91 µM [activator, partial curve] |  |
| CCC1CCCCN1CCCNC(=O)c1cn(CC(C)C)c(=O)c2cc(OC)c(OC)cc12 (centres undefined) |  | inactive: -7.29% |
| CCOC(=O)c1c(N)sc2c1CCCC2=O | inconclusive: 20.6 µM [activator, partial curve] |  |
| N=c1sccn1CC(=O)Nc1cc(S(=O)(=O)N2CCCCC2)ccc1Cl |  | inactive: 11.9% |
| CC(=O)NC12CC3CC(C1)CC(C(=O)Oc1ccc(N(C)S(=O)(=O)c4cc(C)ccc4C)cc1)(C3)C2 |  | inactive: -4.02% |
| CC1(C)Cc2nc3scc(NC(=O)c4ccccc4)c3cc2CO1 |  | inactive: -4.86% |
| O=C(c1ccc(Cl)cc1)N1CCN(CCOc2ccccc2)CC1 |  | inactive: -22.2% |
| COc1cccc(CNC(=O)C2CCN(S(=O)(=O)N3CCC(C)CC3)CC2)c1 | inconclusive: 18.3 µM [inhibitor, partial curve, poor fit] |  |
| CCOc1nonc1C(=N)/C(C(C)=O)=C(\C)O | inconclusive: 18.4 µM [activator, partial curve, poor fit] |  |
| O=C(/C=C/c1ccccc1Cl)N(c1ccccn1)C1CCCCC1 | inconclusive: 18.4 µM [inhibitor, single point] |  |
| COc1cc(/C=N/Nc2ccccc2)ccc1O |  | inactive: 12.8% |
| COc1cccc(NC(=O)C2CCCN(c3ncnc4c3nc3n4CCCCC3)C2)c1 (centres undefined) | active: 14.6 µM |  |
| Cc1c(NS(=O)(=O)c2cc(C(=O)N3CCCC(C)C3)ccc2Cl)c(=O)n(-c2ccccc2)n1C (centres undefined) | inconclusive: 16.4 µM [activator, partial curve, poor fit] |  |
| O=C(Oc1oc(-c2ccco2)nc1C=Nc1ccccc1)c1ccoc1 | inconclusive: 11.6 µM [activator, partial curve, poor fit] |  |
| COc1ccc(C(C)=O)cc1CN1C(=O)NC(CC(C)C)C1=O (centres undefined) | inconclusive: 11.6 µM [activator, partial curve, poor fit] |  |
| O=c1c2cccnc2[nH]c(=S)n1CCCN1CCN(c2ccccc2F)CC1 |  | inactive: -7.79% |
| CCOC(=O)c1ccc(N2C(=O)C(CC(N)=O)N(NC(=O)c3cccc(F)c3)C2=S)cc1 (centres undefined) |  | inactive: -4.75% |
| CC(NC(=O)c1ccccc1NC(=O)c1ccco1)c1ccccc1 (centres undefined) | inconclusive: 5.17 µM [inhibitor, single point] |  |
| O=C(Nc1cnn(C23CC4CC(CC(C4)C2)C3)c1)c1cnn2c(C(F)(F)F)cc(-c3ccco3)nc12 | inconclusive: 6.51 µM [inhibitor, single point] |  |
| O=C(Nc1nnc(C2CC2)s1)c1ccc(Cl)c(S(=O)(=O)N2CCc3ccccc3C2)c1 |  | inactive: -22% |

Ordered by molar mass (rising): some entries from above.

| SMILES | Potency | activity change, negative = inhibition |
| --- | --- | --- |
| CCOc1ccc(-c2cc(N3C(=O)Nc4ccccc4N3O)on2)cc1 | inconclusive: 16.4 µM [activator, partial curve, poor fit] |  |
| O=c1c2cccnc2[nH]c(=S)n1CCCN1CCN(c2ccccc2F)CC1 |  | inactive: -7.79% |
| COc1cccc(NC(=O)C2CCCN(c3ncnc4c3nc3n4CCCCC3)C2)c1 (centres undefined) | active: 14.6 µM |  |
| CCC1CCCCN1CCCNC(=O)c1cn(CC(C)C)c(=O)c2cc(OC)c(OC)cc12 (centres undefined) |  | inactive: -7.29% |
| Cc1c(NS(=O)(=O)c2cc(C(=O)N3CCCC(C)C3)ccc2Cl)c(=O)n(-c2ccccc2)n1C (centres undefined) | inconclusive: 16.4 µM [activator, partial curve, poor fit] |  |

(more compounds)

| SMILES | Potency | activity change, negative = inhibition |
| --- | --- | --- |
| Cc1ccc(NC(=O)COc2ccccc2C(=O)NCCc2ccccc2)cc1 | inconclusive: 29.1 µM [inhibitor, single point] |  |
| COc1ccc(N2CC(NC(=O)N3CCc4ccccc43)CC2=O)cc1OC (centres undefined) |  | inactive: -6.17% |
| O=C(NCc1ccncc1)c1ccc(S(=O)(=O)Nc2ccccc2)cc1 |  | inactive: 8.09% |
| Cc1ccc2c(c1)COc1c3ccc(C(=O)N[C@@H](CO)C(C)C)cc3nn1-2 | inconclusive: 3.66 µM [activator, partial curve] |  |
| COc1cc2[nH]c(=O)n(CCCCCC(=O)N3CCN(c4ccccc4)CC3)c(=O)c2cc1OC | active: 16.4 µM |  |
| O=C(c1ccc(N2CCCC2=O)cc1)N1CCN(c2cccc(C(F)(F)F)c2)CC1 | inconclusive: 11.6 µM [inhibitor, partial curve, poor fit] |  |
| O=C(COc1cccc2c1CCN(Cc1ccccc1F)C2=O)N1CCCCC1 | inconclusive: 23.1 µM [inhibitor, single point] |  |
| O=C(NCc1cccc(F)c1)c1cccc(OC2CCN(C(=O)C3CC3)CC2)c1 | inconclusive: 11.6 µM [inhibitor, partial curve] |  |
| Cn1cc(C(=O)c2ccc(F)cc2)cc1-c1nc2ccccc2n1C | inconclusive: 17.8 µM [inhibitor, partial curve, poor fit] |  |
| C[C@H](CO)N1C[C@H](C)[C@@H](CN(C)Cc2ccc(Cl)c(Cl)c2)Oc2c(NS(=O)(=O)c3ccc(F)cc3)cccc2C1=O | inconclusive: 9.2 µM [inhibitor, partial curve] |  |
| CN(c1cccc(Cl)c1)S(=O)(=O)c1cccc(C(=O)NCc2ccncc2)c1 |  | inactive: -5.01% |
| CN(C)c1ccc(C(=O)OCC(=O)Nc2cccc(S(=O)(=O)N3CCCC3)c2)cc1 | inconclusive: 29.1 µM [inhibitor, single point] |  |
| CC(=O)OCCN1CCN(C(=O)CN2C(=O)NC(c3ccccc3)(c3ccccc3)C2=O)CC1 |  | inactive: 8.96% |
| COc1ccc(N(C)S(=O)(=O)c2cccc3cccnc23)c(OC)c1 | inconclusive: 25.9 µM [inhibitor, single point] |  |
| CC(C)(C)c1ccc(-c2csc(NNC3=NCCCCC3)n2)cc1 |  | inactive: -1.68% |
| Cc1cccc(C(=O)N(Cc2nc3ccccc3c(=O)[nH]2)C2CCCCC2)c1 |  | inactive: 5.68% |
| CC(C)C(O)(c1ccccc1)C(CN1CCOCC1)c1ccccc1 (centres undefined) |  | inactive: -13.5% |
| COc1ccc(-c2cc(=O)oc3cc(OC(=O)C4CCCCC4)c(Cl)cc23)cc1 | active: 3.26 µM |  |
| O=C(c1cc(Cl)nc2ccccc12)N1CCN(S(=O)(=O)c2ccccc2[N+](=O)[O-])CC1 | inconclusive: 16.4 µM [inhibitor, single point] |  |
| O=C(NCCSc1ncc(-c2ccccc2)[nH]1)c1ccco1 | inconclusive: 25.9 µM [activator, single point] |  |
| CCn1c(=O)n(CC)c2cc(S(=O)(=O)N3CCc4ccccc43)ccc21 | active: 16.4 µM |  |
| Nc1cnc(Nc2ccc(Br)cc2)nc1N | inconclusive: 23.1 µM [activator, partial curve] |  |
| O=C(CSc1nccc(=O)[nH]1)Nc1ccc2c(c1)OCCO2 | inconclusive: 16.4 µM [activator, partial curve] |  |
